For 2 substances, binding results are on record in paper PMC10743020.

Amino acid sequences for entries named in this document (tags omitted). Residues count along the entry.
UniProt Q91W90, residues 34-417: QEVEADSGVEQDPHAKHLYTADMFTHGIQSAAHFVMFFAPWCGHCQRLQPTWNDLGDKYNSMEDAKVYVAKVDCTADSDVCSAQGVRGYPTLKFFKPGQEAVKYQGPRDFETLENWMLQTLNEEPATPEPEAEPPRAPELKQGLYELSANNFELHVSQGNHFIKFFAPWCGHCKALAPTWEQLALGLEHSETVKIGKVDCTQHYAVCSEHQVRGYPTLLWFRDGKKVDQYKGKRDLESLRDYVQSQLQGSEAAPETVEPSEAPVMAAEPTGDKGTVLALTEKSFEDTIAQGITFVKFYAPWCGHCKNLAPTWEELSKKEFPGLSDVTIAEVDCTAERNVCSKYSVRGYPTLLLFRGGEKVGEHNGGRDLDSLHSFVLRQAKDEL
UniProt P38647, residues 47-679: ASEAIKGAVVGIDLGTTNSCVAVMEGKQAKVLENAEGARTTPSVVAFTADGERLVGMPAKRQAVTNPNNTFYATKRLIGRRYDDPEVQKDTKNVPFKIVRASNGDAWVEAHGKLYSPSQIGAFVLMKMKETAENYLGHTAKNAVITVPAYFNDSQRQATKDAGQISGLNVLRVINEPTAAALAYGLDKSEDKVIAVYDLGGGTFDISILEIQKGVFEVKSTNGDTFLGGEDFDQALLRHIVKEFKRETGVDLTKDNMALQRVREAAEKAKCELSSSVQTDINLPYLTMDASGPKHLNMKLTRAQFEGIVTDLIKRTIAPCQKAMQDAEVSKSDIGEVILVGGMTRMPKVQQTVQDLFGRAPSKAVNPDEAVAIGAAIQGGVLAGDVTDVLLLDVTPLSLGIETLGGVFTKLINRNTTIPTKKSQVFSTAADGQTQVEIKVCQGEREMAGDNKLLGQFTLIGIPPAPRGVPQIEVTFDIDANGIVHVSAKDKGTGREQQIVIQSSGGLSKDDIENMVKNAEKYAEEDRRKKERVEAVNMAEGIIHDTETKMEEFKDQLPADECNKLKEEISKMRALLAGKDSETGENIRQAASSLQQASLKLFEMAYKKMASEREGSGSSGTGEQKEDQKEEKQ

Results are given in words; binding and its absence hold for the method and conditions named. Binding seen in cells or lysates may run through a third protein. Some results given as binding are weak or reduced against the parent protein; the word gives no strength.

Assay [1] concerns the target Thioredoxin domain-containing 5 (TXNDC5) (mouse (endogenous in AML12)) (UniProt Q91W90). In words: co-IP; AML12 WT and TXNDC5-KO lysates (RIPA) immunoprecipitated with anti-TXNDC5 or anti-PRDX6 antibody on protein A magnetic beads, overnight at 4 °C, PBS-T washes; Western blot of the eluates. On the technique in general: A western blot detects proteins with antibodies after separation by electrophoresis.

Assay [2] concerns the target T1, PRDX6 (mouse (endogenous in AML12)) (UniProt O08709).
T1 sequence: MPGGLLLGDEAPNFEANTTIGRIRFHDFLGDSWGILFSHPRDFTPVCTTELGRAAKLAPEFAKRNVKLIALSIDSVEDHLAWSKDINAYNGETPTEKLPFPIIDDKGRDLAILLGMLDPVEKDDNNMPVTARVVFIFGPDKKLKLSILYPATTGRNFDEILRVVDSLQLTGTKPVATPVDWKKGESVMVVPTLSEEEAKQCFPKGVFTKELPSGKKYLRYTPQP
The assay is described as above.

Consider HSPA9 (from UniProt P38647 47-679), for which the binding entry in assay [1] is “binds”.

Consider “Thioredoxin domain-containing 5 (TXNDC5) (from UniProt Q91W90 34-417)”, for which the binding entry in assay [2] is “binds”.
